Experimental data reported in PMC4299515.
Results are given in words; binding and its absence hold for the method and conditions named. Some entries that bind do so weakly or less than the wild type. Tags and fused reporters may be left off the sequences shown.

What was measured:
[1] = target: T1, SUV39H1, GFP- or RFP-tagged, in U2OS cells (F2H) (UniProt O54864); assay: two-hybrid; fluorescent two-hybrid (F2H) in living human U2OS cells: GFP-tagged protein tethered to lac-operator arrays via GBP-LacI, recruitment of the RFP-tagged protein seen by colocalization
T1 sequence: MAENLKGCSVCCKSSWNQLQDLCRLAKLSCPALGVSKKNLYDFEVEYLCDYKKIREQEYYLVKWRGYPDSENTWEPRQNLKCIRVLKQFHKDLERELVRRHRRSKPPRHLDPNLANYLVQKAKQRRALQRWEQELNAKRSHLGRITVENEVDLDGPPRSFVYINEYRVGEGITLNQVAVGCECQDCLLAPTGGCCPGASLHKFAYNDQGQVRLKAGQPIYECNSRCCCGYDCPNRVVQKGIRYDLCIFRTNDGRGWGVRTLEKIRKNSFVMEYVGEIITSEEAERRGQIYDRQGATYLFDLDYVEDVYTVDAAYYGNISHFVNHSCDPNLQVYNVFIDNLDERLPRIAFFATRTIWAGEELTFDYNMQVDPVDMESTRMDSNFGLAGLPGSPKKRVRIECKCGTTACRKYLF

[2] = target: T2, MBD1 in U2OS cells (F2H), Q9Z2E2; assay: as above; settings: remark: other sources report otherwise
T2 chain: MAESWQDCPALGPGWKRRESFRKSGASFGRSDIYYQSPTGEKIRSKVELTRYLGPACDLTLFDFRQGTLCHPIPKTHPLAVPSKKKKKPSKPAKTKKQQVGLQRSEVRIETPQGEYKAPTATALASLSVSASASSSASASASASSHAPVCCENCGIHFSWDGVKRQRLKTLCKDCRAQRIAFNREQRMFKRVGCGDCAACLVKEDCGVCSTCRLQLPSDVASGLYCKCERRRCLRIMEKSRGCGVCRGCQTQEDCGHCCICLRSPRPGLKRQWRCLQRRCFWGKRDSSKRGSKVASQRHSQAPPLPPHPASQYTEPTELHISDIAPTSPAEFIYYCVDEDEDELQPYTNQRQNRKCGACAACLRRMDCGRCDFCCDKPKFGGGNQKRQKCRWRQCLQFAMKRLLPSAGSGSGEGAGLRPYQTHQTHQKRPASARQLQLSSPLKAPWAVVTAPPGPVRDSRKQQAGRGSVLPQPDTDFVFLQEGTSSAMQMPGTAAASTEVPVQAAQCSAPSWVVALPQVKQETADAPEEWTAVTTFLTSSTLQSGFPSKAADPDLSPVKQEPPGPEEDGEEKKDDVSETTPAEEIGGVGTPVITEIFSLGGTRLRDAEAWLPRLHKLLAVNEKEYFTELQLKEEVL

B1: SUV39H1, GFP- or RFP-tagged, in U2OS cells (F2H) (enzyme, UniProt O54864 1-412)
chain: MAENLKGCSVCCKSSWNQLQDLCRLAKLSCPALGVSKKNLYDFEVEYLCDYKKIREQEYYLVKWRGYPDSENTWEPRQNLKCIRVLKQFHKDLERELVRRHRRSKPPRHLDPNLANYLVQKAKQRRALQRWEQELNAKRSHLGRITVENEVDLDGPPRSFVYINEYRVGEGITLNQVAVGCECQDCLLAPTGGCCPGASLHKFAYNDQGQVRLKAGQPIYECNSRCCCGYDCPNRVVQKGIRYDLCIFRTNDGRGWGVRTLEKIRKNSFVMEYVGEIITSEEAERRGQIYDRQGATYLFDLDYVEDVYTVDAAYYGNISHFVNHSCDPNLQVYNVFIDNLDERLPRIAFFATRTIWAGEELTFDYNMQVDPVDMESTRMDSNFGLAGLPGSPKKRVRIECKCGTTACRKYLF
[1]
  binding: binds

B2: SUV39H1, GFP- or RFP-tagged, in U2OS cells (F2H), O54864 1-412 (enzyme)
chain: MAENLKGCSVCCKSSWNQLQDLCRLAKLSCPALGVSKKNLYDFEVEYLCDYKKIREQEYYLVKWRGYPDSENTWEPRQNLKCIRVLKQFHKDLERELVRRHRRSKPPRHLDPNLANYLVQKAKQRRALQRWEQELNAKRSHLGRITVENEVDLDGPPRSFVYINEYRVGEGITLNQVAVGCECQDCLLAPTGGCCPGASLHKFAYNDQGQVRLKAGQPIYECNSRCCCGYDCPNRVVQKGIRYDLCIFRTNDGRGWGVRTLEKIRKNSFVMEYVGEIITSEEAERRGQIYDRQGATYLFDLDYVEDVYTVDAAYYGNISHFVNHSCDPNLQVYNVFIDNLDERLPRIAFFATRTIWAGEELTFDYNMQVDPVDMESTRMDSNFGLAGLPGSPKKRVRIECKCGTTACRKYLF
[2]
  binding: no binding
